Binding data for one substance are collected here from article PMC8125063.

Amino acid sequences for entries named in this document (tags omitted).
UniProt P11798: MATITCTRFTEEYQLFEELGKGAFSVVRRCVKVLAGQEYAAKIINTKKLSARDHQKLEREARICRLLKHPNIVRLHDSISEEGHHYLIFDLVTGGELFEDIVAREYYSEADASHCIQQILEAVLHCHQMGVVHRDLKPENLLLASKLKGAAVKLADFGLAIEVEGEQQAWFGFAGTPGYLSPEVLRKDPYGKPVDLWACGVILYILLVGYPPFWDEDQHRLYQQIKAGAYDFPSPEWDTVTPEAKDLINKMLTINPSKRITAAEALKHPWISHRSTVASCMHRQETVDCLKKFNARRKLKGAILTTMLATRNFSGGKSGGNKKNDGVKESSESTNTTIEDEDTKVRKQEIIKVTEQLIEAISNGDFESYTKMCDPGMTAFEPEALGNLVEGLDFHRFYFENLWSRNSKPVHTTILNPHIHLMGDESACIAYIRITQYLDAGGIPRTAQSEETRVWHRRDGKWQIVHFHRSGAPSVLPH

The target in the assay is T1, Fructose 1,6-bisphosphatase 2 (Fbp2), endogenous in mouse hippocampal neurons (mouse (endogenous in hippocampal neurons of C57BL6 mice)) (UniProt P70695).
T1 sequence: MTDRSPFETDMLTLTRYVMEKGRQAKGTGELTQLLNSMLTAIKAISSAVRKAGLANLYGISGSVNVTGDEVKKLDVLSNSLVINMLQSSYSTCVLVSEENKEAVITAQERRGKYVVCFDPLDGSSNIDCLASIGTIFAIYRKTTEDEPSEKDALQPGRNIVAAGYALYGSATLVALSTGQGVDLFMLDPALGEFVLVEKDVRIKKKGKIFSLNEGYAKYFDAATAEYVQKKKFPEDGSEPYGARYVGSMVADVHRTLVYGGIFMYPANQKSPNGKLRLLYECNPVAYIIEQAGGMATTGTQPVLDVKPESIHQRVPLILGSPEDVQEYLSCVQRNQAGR
Nature of the assay: proximity ligation; DuoLink In Situ Orange kit on cultured mouse hippocampal neurons with mouse anti-Fbp2 and rabbit anti-Camk2α; neurons untreated or treated with 100 µM CoCl2 and/or 5 µM iFbp for 24 h.

No constants are given. Whether binding was seen depends on the method and setting. Binding seen in cells or lysates may run through a third protein. Some binding calls cover weakened binding; strength is not graded here.

“Ca2+/calmodulin-dependent protein kinase 2α (Camk2α), endogenous in mouse hippocampal neurons (from UniProt P11798 1-478) (enzyme)”: the binding entry is reported as “binds”.
